Reference: US10994013B2, “Solid dosage form containing arabinogalactan” (TEMPLE UNIVERSITY—OF THE COMMONWEALTH SYSTEM OF HIGHER …, priority 2013, dated 2021)
For at least one compound, name, drawing or mass did not settle the structure.

Assay: In vitro drug dissolution, USP basket method, 0.1 N HCl
Type: physicochemical
Conditions: AGF formulations
Method: The in vitro drug dissolution rates of the dosage forms listed in Table 4 below were determined by the USP basked method (270 mesh, 53 micron pore size). The Van Kel VK7010 dissolution system was employed. 900 ml of 0.1 N HCl at 37° C. was used as a dissolution medium. The media was selected to mimic gastric pH and to allow greater discrimination of ibuprofen dissolution profiles due to formulation and processing effects. The dissolution experiment was run at 100 rpm. Each sample contained a dosage form equivalent to 25 mg of ibuprofen to maintain the non sink conditions, i.e. to employ a volume of medium (900 ml in this case) that is less than the volume of medium required for sink conditions, which is three times that required in order to form a saturated solution of drug. In vitro dissolution of 25 mg of neat ibuprofen was used as a control. At appropriate time intervals, samples were collected and replaced by fresh media. Each sample was filtered and the drug was analyzed using Agilent/HP 8453 UV-Vis spectrophotometer (λmx=222 nm). The experiment was conducted in triplicate. T50 (time for 50% drug release), T60 (time for 60% drug release), and T80 (time for 80% drug release) was recorded directly from the dissolution profiles.
The in vitro drug dissolution rates of PMs and MSDs made with ibuprofen and AGF or HPMCK3 were determined by the USP basked method (270 mesh, 53 micron pore size). The Van Kel VK7010 dissolution system was employed. 900 ml of 0.1 N HCl at 37° C. was used as a dissolution medium. […] Each sample was filtered and the drug was analyzed using Agilent/HP 8453 UV-Vis spectrophotometer (λmx=222 nm). […] T50 (time for 50% drug release), T60 (time for 60% drug release), and T80 (time for 80% drug release) was recorded directly from the dissolution profiles.
In vitro basket dissolution was carried out on SDM and PM formulations as described in Example 3. […] ITRA was analyzed using an Agilent/HP 8453 UV-Vis spectrophotometer (λmax=257 nm). […]
The degree of similarity between the dissolution profiles was calculated using the following equation from Moore and Flanner, 1996, Pharm. […]

With CCC(C)n1ncn(-c2ccc(N3CCN(c4ccc(OCC5COC(Cn6cncn6)(c6ccc(Cl)cc6Cl)O5)cc4)CC3)cc2)c1=O (stereo not drawn) [ITRA, Itraconazole] the “% drug release at 15 minutes” value was 1.4%, the “% drug release at 30 minutes” value was 1.6% and the “% drug release at 120 minutes” value was 2.6%.
